Results taken from the supplement of paper PMC10849652.
The other results are listed elsewhere or left out.

Sequences of proteins named here, by UniProt entry; tags and fusion partners are left off. A change or cut given only in a name is not applied to a line headed by its entry.
UniProt P58004: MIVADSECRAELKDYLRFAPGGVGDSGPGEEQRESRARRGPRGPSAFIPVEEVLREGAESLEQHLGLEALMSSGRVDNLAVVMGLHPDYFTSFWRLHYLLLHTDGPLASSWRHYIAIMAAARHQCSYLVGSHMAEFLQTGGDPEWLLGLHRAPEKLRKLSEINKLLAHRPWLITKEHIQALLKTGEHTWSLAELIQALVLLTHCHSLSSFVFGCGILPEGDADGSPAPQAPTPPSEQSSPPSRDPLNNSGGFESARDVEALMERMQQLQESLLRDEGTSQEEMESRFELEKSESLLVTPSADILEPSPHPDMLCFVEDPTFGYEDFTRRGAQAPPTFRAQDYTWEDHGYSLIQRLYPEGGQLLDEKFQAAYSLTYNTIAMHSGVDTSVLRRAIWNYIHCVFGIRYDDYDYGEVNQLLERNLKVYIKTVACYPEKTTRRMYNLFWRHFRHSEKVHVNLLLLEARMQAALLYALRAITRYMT
UniProt P49281: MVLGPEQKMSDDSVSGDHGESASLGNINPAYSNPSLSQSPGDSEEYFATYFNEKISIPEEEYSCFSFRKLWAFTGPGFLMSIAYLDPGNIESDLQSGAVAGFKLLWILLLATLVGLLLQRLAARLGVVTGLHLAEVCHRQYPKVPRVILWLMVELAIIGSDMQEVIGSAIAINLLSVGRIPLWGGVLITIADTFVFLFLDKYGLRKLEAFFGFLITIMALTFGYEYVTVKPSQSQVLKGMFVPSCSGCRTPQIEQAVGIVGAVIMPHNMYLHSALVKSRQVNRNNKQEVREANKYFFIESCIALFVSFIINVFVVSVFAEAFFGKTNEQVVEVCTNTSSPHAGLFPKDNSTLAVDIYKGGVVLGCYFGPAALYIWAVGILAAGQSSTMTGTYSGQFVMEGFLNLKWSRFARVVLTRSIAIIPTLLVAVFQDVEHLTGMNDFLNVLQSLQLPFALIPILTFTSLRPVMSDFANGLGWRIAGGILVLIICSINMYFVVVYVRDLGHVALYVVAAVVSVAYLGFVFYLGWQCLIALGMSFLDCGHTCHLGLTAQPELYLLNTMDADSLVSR
UniProt P50454: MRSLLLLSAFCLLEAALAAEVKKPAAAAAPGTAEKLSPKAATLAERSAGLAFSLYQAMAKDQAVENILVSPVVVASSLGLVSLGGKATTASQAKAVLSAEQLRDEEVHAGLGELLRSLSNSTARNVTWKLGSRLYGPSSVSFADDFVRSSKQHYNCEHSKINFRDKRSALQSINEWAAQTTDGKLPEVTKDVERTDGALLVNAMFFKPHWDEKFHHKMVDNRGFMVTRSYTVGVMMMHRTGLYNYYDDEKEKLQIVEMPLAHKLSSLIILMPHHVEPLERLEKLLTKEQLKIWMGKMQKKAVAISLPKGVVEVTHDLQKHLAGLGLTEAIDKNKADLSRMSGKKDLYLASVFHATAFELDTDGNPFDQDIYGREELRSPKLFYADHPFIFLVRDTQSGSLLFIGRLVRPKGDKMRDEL
UniProt O75563, whole entry, looked up: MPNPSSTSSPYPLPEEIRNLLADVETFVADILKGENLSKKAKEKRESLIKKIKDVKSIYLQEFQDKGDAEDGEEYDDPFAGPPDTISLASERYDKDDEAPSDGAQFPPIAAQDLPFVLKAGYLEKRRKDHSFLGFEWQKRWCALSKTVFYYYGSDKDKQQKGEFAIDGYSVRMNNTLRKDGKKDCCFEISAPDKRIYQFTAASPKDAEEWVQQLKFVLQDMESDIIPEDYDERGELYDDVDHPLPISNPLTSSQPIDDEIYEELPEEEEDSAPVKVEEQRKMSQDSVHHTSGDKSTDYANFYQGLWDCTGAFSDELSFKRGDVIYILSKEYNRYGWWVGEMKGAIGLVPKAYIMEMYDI
UniProt Q9H299: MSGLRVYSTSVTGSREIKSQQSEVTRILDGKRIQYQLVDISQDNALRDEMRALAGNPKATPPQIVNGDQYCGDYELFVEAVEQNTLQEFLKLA
UniProt Q9UJC5: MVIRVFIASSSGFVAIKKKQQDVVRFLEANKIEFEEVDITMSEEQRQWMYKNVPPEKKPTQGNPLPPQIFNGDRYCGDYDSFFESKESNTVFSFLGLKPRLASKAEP
UniProt Q99961: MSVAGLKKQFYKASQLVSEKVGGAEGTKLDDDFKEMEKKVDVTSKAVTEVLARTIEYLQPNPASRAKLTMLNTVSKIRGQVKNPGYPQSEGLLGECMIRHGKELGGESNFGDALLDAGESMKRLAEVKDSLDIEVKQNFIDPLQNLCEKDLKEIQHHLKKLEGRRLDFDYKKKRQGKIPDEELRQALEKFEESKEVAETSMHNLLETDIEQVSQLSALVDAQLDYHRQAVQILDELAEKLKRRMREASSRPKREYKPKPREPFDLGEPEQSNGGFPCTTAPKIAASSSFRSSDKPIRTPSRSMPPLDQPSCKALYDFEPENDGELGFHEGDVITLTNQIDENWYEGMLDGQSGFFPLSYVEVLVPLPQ
UniProt Q9NXA8: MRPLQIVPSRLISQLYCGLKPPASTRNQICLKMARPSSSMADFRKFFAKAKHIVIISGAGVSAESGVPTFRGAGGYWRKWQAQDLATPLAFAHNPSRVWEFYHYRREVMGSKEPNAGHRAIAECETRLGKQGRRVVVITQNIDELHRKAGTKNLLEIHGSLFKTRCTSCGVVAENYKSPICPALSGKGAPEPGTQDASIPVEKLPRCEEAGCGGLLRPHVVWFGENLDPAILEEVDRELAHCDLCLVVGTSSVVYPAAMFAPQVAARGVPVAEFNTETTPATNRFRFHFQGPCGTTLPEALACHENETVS
UniProt Q12872: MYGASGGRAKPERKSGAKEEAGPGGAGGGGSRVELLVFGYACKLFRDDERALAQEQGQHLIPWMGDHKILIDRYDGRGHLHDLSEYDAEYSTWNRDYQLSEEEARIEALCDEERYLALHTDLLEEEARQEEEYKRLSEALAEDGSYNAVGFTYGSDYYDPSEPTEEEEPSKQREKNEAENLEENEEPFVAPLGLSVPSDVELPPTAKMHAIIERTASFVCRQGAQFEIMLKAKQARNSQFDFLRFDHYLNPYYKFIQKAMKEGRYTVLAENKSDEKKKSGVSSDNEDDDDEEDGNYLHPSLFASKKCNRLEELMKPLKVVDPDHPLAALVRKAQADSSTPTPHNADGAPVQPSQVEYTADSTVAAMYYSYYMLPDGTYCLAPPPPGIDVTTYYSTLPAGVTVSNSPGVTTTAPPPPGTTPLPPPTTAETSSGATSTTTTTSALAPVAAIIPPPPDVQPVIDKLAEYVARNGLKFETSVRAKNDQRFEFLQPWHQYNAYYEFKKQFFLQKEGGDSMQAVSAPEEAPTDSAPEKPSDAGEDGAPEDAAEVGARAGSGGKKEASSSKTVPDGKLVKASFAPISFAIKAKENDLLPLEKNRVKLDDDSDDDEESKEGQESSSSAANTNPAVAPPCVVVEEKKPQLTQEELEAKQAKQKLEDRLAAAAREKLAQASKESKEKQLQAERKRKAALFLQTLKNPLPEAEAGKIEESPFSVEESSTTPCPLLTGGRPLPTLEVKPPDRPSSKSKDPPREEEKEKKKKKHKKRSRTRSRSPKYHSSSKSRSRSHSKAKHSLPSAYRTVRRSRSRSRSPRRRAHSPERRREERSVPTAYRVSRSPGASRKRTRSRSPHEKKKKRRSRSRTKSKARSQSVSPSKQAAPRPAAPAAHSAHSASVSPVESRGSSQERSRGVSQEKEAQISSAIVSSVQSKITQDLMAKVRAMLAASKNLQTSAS
UniProt Q6P4A7: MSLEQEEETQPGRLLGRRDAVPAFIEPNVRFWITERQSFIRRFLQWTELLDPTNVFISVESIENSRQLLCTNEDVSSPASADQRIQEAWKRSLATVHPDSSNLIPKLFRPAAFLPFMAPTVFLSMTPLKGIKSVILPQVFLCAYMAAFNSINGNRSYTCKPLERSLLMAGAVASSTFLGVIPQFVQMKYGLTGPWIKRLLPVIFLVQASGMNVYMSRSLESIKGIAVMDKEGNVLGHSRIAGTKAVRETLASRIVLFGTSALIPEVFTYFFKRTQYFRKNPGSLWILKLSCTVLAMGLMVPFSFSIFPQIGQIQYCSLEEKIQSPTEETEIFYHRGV
UniProt Q53H47: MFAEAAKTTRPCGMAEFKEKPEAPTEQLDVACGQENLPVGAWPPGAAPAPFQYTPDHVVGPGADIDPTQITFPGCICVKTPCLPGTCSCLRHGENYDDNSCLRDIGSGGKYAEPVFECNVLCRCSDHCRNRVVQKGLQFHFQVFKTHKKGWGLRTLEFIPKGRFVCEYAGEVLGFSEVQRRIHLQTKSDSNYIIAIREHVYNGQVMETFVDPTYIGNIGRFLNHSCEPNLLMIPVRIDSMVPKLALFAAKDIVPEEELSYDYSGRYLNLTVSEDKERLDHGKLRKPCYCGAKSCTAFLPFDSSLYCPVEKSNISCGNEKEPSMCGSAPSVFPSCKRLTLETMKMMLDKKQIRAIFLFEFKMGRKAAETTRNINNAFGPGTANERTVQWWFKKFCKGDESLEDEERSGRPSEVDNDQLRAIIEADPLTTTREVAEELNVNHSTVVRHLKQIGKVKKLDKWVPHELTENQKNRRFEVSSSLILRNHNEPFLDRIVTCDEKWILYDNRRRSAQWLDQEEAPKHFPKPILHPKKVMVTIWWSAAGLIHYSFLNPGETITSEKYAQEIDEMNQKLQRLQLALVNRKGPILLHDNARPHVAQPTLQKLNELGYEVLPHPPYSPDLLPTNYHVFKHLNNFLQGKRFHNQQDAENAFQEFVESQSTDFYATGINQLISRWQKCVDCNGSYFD
UniProt P55822: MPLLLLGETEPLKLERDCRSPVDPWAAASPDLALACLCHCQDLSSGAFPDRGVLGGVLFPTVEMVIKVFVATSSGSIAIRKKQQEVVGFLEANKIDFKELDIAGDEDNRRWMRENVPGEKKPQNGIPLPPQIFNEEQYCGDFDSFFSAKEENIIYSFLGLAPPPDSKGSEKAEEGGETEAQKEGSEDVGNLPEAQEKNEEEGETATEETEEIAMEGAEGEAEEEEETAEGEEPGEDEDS
UniProt Q8WVK7: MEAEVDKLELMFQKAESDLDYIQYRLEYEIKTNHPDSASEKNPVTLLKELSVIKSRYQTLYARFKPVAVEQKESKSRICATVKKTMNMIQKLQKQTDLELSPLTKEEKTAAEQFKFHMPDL
UniProt P84101: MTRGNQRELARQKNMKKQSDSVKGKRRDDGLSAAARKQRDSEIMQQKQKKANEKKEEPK
UniProt Q96FS4: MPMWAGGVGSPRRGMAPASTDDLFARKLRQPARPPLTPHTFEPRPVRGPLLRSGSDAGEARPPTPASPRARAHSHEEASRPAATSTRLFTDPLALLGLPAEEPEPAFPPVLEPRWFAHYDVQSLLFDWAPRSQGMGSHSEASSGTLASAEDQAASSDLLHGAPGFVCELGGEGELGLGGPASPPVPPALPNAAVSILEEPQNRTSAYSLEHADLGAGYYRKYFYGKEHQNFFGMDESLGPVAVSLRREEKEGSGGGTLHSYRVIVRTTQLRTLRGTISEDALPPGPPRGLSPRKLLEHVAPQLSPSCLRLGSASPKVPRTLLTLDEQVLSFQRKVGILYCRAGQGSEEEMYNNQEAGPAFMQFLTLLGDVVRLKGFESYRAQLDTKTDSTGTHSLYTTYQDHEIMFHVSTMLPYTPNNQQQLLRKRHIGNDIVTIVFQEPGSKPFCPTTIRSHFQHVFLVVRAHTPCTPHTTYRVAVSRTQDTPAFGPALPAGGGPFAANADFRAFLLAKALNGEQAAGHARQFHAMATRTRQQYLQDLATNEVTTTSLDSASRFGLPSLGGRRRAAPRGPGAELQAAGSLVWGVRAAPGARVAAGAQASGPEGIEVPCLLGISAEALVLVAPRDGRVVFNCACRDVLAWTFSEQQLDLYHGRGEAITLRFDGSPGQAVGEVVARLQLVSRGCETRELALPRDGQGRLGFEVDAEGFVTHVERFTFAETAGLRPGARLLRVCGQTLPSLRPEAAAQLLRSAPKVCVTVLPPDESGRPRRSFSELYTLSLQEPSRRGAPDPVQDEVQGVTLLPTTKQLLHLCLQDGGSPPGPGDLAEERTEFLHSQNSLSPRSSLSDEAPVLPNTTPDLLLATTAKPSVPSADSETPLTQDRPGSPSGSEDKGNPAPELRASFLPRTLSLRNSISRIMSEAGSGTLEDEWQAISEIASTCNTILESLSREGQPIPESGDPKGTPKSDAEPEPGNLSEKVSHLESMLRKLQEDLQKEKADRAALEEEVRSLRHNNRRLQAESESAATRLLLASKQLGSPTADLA
UniProt Q99720, whole entry, looked up: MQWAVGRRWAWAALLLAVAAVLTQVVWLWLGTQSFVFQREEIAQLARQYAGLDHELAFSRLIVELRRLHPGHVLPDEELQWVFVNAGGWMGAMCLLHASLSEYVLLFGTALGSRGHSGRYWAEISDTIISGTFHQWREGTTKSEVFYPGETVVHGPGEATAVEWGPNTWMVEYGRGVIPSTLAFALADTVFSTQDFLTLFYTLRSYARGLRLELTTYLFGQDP

These targets were tested with Cc1cc(Nc2cc(N3CCN(C)CC3)nc(Sc3ccc(NC(=O)C4CC4)cc3)n2)n[nH]1 [tozasertib] (assay: log2 fold change, soluble protein after heating vs DMSO (PISA); higher = thermal stabilisation; K562 lysate, 10 uM; active = over 0.2 and 3.5 SD of the protein, either way, in both replicates (recomputed)).
Procedure, shortened: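 The values are log-two fold changes in thermal stability compared with solvent controls and come from duplicates. They were obtained by TMTpro 16plex LC-MS/MS, with channel sums equalised, on the supernatant after 21,000xg for 90 min. That supernatant came from crude K562 extract at 1 mg/mL protein treated with 10 μM compound for 30 min, heated for 3 min across 48°C-58°C, pooled and brought to 0.5% NP-40 at 4°C.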

log2 fold change, inactive:
SESN2 (UniProt P58004) -0.006
SLC11A2 isoform 3 (UniProt P49281) -0.08
SERPINH1 (UniProt P50454) -0.015
SKAP2 (UniProt O75563) 0.026
SH3BGRL3 (UniProt Q9H299) 0.027
SLAIN2 (UniProt Q9P270) 0.012
SH3BGRL2 (UniProt Q9UJC5) -0.078
SH3GL1 (UniProt Q99961) 0.013
SIRT5 (UniProt Q9NXA8) 0.046
SERBP1 (UniProt Q8NC51) 0.015
SFSWAP isoform 2 (UniProt Q12872) -0.038
SERPINB9 (UniProt P50453) -0.026
SIRT2 (UniProt Q8IXJ6) -0.037
SF3B1 (UniProt O75533) 0.016
SFXN4 (UniProt Q6P4A7) 0.004
SETMAR (UniProt Q53H47) -0.29
SH3BGR (UniProt P55822) -0.052
SERGEF (UniProt Q9UGK8) 0.038
SKA2 (UniProt Q8WVK7) 0.048
SF1 isoform 5 (UniProt Q15637) 0.043
SERF2 (UniProt P84101) 0.147
SIPA1 (UniProt Q96FS4) 0.026
SIGMAR1 (UniProt Q99720) -0.017

A section from further up, as a working copy:
log2 fold change, inactive:
SF1 isoform 5 (UniProt Q15637) 0.043
SERF2 (UniProt P84101) 0.147
